From the supplement of paper PMC10849652
The list shows a part of the results.

Sequences of proteins named here, by UniProt entry; tags and fusion partners are left off. A change or cut given only in a name is not applied to a line headed by its entry.
UniProt P11766: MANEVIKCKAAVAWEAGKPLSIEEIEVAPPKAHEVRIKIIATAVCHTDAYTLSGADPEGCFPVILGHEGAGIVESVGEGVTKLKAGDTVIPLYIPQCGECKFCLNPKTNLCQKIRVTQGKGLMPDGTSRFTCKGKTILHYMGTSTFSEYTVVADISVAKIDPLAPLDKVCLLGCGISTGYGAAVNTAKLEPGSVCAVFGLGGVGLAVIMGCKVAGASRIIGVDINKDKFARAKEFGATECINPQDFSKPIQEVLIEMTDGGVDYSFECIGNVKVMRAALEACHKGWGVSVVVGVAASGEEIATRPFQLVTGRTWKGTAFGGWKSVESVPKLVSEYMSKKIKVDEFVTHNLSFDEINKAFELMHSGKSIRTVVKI
UniProt Q6ZN18: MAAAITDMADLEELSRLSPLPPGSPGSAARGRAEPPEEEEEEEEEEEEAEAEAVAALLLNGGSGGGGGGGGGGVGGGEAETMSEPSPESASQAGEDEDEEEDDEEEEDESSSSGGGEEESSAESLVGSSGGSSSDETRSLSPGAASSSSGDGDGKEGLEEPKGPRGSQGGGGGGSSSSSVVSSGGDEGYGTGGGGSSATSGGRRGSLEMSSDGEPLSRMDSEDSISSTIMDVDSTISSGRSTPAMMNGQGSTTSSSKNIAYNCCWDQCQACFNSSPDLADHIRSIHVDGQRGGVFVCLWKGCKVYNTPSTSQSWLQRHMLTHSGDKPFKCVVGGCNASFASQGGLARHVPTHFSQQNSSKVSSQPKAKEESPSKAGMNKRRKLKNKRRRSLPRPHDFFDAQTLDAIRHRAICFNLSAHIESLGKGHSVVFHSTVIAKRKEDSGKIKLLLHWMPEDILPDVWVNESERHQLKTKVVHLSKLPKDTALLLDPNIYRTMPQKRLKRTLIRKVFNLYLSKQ
UniProt O43865, whole entry, looked up: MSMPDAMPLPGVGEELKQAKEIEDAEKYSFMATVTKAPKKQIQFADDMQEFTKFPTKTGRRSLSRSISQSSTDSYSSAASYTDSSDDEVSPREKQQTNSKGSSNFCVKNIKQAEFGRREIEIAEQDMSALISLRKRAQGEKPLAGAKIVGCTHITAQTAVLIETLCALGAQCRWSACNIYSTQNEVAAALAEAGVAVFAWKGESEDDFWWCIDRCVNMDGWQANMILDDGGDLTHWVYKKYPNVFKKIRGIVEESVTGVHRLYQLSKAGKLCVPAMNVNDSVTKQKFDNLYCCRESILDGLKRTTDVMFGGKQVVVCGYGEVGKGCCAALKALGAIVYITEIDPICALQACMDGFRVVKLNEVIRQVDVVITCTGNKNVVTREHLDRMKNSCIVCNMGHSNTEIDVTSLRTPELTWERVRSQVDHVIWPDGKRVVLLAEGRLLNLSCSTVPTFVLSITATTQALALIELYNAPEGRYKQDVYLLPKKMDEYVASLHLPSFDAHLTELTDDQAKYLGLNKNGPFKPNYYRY
UniProt O43488: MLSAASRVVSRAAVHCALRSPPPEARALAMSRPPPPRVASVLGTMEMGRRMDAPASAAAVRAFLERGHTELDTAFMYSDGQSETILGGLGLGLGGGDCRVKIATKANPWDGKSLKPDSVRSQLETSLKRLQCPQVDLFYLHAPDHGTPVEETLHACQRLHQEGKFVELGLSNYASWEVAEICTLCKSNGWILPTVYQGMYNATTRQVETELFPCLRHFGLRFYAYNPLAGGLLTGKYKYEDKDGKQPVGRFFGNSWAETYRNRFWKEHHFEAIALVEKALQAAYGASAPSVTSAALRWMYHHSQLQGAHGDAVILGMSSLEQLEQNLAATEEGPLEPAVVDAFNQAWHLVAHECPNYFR
UniProt Q16186: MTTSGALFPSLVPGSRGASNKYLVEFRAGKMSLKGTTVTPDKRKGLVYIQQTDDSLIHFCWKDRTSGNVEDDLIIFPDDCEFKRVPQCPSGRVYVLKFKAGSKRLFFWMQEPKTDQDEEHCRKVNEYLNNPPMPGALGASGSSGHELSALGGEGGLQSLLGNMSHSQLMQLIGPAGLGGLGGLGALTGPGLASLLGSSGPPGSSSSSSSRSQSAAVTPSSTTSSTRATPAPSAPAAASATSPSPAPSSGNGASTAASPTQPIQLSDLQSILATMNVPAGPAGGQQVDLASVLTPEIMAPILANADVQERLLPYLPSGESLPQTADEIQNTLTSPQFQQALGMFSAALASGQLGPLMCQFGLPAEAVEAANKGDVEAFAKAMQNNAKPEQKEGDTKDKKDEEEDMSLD
UniProt Q01432: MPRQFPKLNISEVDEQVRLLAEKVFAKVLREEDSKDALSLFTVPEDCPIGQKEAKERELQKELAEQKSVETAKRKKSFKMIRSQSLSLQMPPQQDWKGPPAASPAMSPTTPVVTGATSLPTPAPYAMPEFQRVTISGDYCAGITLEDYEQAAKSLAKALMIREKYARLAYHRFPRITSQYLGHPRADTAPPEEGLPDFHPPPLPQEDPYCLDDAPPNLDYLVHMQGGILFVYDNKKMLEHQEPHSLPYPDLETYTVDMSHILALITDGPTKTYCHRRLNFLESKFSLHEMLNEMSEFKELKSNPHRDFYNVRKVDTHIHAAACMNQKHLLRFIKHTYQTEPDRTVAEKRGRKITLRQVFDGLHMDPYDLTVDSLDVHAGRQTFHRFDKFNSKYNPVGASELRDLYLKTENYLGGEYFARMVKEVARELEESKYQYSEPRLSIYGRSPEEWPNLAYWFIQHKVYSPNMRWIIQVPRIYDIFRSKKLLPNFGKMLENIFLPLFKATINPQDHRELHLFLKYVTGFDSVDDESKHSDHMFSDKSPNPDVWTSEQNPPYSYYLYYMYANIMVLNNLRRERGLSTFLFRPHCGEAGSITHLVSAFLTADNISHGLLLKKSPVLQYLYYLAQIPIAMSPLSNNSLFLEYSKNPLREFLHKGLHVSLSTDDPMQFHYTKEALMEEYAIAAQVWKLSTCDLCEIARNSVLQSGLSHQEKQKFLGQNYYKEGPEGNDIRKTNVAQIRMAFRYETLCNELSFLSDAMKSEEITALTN
UniProt Q8IY63: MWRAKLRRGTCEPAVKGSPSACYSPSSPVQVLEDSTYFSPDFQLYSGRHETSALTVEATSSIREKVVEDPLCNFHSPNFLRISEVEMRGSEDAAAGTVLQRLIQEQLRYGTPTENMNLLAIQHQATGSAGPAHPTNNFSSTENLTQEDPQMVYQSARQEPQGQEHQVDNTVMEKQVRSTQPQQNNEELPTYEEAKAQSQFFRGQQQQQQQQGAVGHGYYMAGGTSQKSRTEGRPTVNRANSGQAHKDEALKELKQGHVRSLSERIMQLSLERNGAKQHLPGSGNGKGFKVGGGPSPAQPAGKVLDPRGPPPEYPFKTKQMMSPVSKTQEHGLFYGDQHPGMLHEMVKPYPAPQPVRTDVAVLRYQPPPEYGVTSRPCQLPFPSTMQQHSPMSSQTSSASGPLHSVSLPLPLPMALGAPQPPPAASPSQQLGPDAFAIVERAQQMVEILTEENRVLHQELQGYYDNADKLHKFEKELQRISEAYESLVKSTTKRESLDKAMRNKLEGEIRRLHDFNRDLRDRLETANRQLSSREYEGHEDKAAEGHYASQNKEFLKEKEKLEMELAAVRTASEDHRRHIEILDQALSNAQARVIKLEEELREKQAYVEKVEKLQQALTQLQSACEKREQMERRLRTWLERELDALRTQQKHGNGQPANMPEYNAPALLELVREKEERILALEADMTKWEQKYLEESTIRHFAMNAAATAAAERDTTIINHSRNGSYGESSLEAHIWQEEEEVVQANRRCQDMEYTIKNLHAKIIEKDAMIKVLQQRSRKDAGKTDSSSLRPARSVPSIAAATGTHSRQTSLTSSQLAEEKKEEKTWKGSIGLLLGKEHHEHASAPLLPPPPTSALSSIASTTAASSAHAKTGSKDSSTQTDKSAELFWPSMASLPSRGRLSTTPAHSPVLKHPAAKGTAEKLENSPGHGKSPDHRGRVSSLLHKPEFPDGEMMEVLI
UniProt P52594: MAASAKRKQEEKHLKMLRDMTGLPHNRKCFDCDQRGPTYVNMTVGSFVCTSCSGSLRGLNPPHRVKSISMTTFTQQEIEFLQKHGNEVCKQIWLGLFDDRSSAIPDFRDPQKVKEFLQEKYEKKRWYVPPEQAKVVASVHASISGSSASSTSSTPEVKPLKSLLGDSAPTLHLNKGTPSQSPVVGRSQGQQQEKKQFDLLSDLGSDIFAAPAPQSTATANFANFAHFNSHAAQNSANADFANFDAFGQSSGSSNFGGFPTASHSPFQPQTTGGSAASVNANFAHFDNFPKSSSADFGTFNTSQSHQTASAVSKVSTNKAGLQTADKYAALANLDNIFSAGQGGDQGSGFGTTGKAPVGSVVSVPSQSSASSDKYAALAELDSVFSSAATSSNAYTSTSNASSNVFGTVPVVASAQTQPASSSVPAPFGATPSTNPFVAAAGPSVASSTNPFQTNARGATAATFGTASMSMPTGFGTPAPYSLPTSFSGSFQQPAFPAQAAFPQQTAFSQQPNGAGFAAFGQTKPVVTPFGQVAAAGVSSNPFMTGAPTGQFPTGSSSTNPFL
UniProt Q9BV57: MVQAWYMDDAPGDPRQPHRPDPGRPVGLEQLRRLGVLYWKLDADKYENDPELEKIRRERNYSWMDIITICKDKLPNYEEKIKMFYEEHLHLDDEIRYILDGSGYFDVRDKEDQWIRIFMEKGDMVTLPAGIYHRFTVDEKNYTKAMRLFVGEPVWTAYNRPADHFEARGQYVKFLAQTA
UniProt P09972: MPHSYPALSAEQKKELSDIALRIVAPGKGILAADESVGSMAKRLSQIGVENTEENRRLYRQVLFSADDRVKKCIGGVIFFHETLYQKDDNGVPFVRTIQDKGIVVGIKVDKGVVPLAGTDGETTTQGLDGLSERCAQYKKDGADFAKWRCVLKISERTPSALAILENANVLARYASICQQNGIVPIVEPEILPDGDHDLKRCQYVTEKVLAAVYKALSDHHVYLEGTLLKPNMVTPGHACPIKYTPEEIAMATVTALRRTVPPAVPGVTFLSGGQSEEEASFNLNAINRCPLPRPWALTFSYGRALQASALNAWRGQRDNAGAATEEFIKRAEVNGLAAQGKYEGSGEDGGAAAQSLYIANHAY
UniProt Q9NUQ2: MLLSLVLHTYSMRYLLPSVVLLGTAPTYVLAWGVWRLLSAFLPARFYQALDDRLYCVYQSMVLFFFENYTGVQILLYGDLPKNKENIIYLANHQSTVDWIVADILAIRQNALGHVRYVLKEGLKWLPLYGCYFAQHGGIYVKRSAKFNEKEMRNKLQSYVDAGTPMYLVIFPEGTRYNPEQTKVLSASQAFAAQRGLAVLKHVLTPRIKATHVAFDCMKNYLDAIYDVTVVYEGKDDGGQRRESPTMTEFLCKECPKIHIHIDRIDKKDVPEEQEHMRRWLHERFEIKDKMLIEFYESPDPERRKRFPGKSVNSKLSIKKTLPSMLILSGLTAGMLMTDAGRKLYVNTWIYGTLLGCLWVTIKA
UniProt P30566: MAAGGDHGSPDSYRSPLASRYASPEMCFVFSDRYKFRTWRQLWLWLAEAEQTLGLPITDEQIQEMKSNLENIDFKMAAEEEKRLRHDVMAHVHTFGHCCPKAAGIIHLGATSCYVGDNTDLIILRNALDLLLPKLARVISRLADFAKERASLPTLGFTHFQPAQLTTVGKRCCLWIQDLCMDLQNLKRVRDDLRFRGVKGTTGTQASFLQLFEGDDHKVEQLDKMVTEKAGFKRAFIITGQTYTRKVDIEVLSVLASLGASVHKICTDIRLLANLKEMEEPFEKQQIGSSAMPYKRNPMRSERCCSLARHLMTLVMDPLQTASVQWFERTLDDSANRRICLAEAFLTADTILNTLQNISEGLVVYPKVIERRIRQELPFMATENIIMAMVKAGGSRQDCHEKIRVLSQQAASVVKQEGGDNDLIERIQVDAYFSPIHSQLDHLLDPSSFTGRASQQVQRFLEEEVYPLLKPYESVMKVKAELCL
UniProt Q9BVK2: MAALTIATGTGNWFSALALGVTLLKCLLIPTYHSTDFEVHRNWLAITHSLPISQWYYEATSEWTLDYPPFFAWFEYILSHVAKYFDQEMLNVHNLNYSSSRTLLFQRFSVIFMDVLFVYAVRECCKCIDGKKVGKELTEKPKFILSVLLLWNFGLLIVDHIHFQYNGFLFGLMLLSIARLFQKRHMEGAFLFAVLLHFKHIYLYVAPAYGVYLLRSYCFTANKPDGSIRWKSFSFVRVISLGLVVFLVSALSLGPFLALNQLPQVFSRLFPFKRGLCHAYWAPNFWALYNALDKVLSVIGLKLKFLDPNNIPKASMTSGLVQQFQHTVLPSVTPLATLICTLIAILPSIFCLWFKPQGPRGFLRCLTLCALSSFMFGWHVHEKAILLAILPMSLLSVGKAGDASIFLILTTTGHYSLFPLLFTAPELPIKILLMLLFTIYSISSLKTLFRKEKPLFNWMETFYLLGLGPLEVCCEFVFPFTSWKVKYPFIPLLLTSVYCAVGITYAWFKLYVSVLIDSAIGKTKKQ
UniProt Q9Y3D8, whole entry, looked up: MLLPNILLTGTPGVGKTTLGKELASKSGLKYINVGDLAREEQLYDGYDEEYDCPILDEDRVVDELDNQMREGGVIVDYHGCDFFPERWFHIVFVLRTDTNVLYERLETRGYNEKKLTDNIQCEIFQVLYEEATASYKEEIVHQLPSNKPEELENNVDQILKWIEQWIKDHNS

Key:
Assay in all cases: log2 fold change, soluble protein after heating vs DMSO (PISA); higher = thermal stabilisation; K562 cells, 10 uM, 30 min; active = over 0.2 and 3.5 SD of the protein, either way, in both replicates (recomputed)
[1] = compound: C1=CC=C(C=C1)[C@H](COC2=CC3=C(C=C2)NC(=O)N3)NC(=O)C4=CC=CN(C4=O)CC5=CC(=C(C=C5)F)F
Procedure, shortened: (§1)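 Soluble protein was quantified by TMTpro 16plex LC-MS/MS after channel sums were equalised. It was obtained as the supernatant after 21,000xg for 90 min from pooled aliquots of K562 cells (2×10^6 cells/mL, 10 μM compound, 30 min) heated for 3 min across 48°C-58°C and extracted in PBS with 0.5% NP-40 at 4°C. Thermal stability values are relative to control samples and come from duplicates. They are given as log2 fold changes.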

[2] = compound: CC1=C(SC2=C1C(=N[C@H](C3=NN=C(N32)C)CC(=O)N)C4=CC=C(C=C4)Cl)C
Procedure, shortened: as §1

[3] = compound: CC1=C2C(=CC=C1)N=C(N(C2=O)C3=CC=CC=C3C)CN4C=NC5=C(N=CN=C54)N
Procedure, shortened: as §1

[4] = compound: Cc1sc2c(c1C)C(c1ccc(Cl)cc1)=N[C@@H](CC(=O)OC(C)(C)C)c1nnc(C)n1-2
Procedure, shortened: as §1

[5] = compound: c1ccc([C@@H]2C[C@H]2NC2CCNCC2)cc1
Procedure, shortened: as §1

Measured: log2 fold change

ALDH9A1 isoform 3 (UniProt P49189)
inactive: [1] -0.007 | [2] 0.029 | [3] 0.019 | [4] -0.019 | [5] 0.028

ADH5 (UniProt P11766)
inactive: [1] 0.026 | [2] 0.024 | [3] 0.025 | [4] -0.023 | [5] 0.017

AEBP2 (UniProt Q6ZN18)
inactive: [1] 0.048

AMN1 (UniProt Q8IY45)
inactive: [1] 0.055 | [2] -0.023 | [3] 0.287 | [4] -0.007 | [5] -0.082

AHCYL1 (UniProt O43865)
inactive: [1] 0.057 | [2] -0.004 | [3] 0.014 | [4] -0.03 | [5] -0.037

AIFM1 (UniProt O95831)
inactive: [1] 0.011 | [2] 0.015 | [3] 0.055 | [4] -0.011 | [5] 0.007

ALG12 (UniProt Q9BV10)
inactive: [1] -0.04 | [2] 0.032 | [3] -0.093 | [4] 0 | [5] 0.001

AKR7A2 (UniProt O43488)
inactive: [1] -0.033 | [2] 0.04 | [3] -0.022 | [4] -0.04 | [5] -0.095

AHCYL2 (UniProt Q96HN2)
inactive: [1] -0.005 | [2] -0.004 | [3] 0.013 | [4] -0.03 | [5] -0.026

ADRM1 (UniProt Q16186)
inactive: [1] 0.007 | [2] -0.062 | [3] -0.001 | [4] -0.019 | [5] -0.01

AGO2 (UniProt Q9UKV8)
inactive: [1] 0.052 | [2] -0.032 | [3] -0.016 | [4] 0.04 | [5] 0.057

ANAPC1 (UniProt Q9H1A4)
inactive: [1] -0.007 | [2] -0.023 | [3] 0.021 | [4] 0.025 | [5] -0.011

AFG1L (UniProt Q8WV93)
inactive: [1] 0.025 | [2] 0.096 | [3] -0.008 | [4] -0.074 | [5] -0.129

AMPD3 isoform 4 (UniProt Q01432)
inactive: [1] -0.034 | [2] 0.031 | [3] 0.064 | [4] 0.023 | [5] -0.051

ALG3 (UniProt Q92685)
inactive: [1] -0.061 | [2] 0.019 | [3] 0.072 | [4] 0.054 | [5] -0.026

AMOTL1 (UniProt Q8IY63)
inactive: [1] 0.004

AKTIP isoform 2 (UniProt Q9H8T0)
inactive: [1] -0.274

ADO (UniProt Q96SZ5)
inactive: [1] -0.019 | [2] 0.046 | [3] 0.03 | [4] 0 | [5] 0.037

ALDH18A1 (UniProt P54886)
inactive: [1] -0.107 | [2] -0.038 | [3] 0.028 | [4] 0.018 | [5] 0.02

AFF4 (UniProt Q9UHB7)
inactive: [1] -0.182

ALKBH5 (UniProt Q6P6C2)
inactive: [1] 0.065 | [2] -0.002 | [3] 0.085 | [4] -0.024 | [5] 0.028

AGFG1 isoform 4 (UniProt P52594)
inactive: [1] 0.021 | [2] 0.05 | [3] 0.148 | [4] -0.02 | [5] -0.017

ALG9 isoform 3 (UniProt Q9H6U8)
inactive: [1] -0.028 | [2] 0.031 | [3] -0.017 | [4] -0.023 | [5] -0.028

ALG10B (UniProt Q5I7T1)
inactive: [1] -0.115 | [2] 0.085 | [3] -0.048 | [4] -0.199 | [5] 0.017

AK3 (UniProt Q9UIJ7)
inactive: [1] 0.005 | [2] 0.036 | [3] 0.015 | [4] -0.02 | [5] 0.009

AHCY (UniProt P23526)
inactive: [1] 0.007 | [2] 0.019 | [3] 0.019 | [4] -0.01 | [5] -0.011

ADK (UniProt P55263)
inactive: [1] 0.026 | [2] 0.036 | [3] 0.154 | [4] -0.008 | [5] -0.057

ADI1 (UniProt Q9BV57)
inactive: [1] -0.024 | [2] 0.005 | [3] 0.15 | [4] 0.001 | [5] 0.022

ALYREF (UniProt Q86V81)
inactive: [1] 0.088 | [2] -0.157 | [3] -0.113 | [4] 0.204 | [5] 0.072

AKAP1 (UniProt Q92667)
inactive: [1] 0.022 | [2] -0.005 | [3] 0.05 | [4] 0.021 | [5] 0.003

ALDOC (UniProt P09972)
inactive: [1] 0.041 | [2] 0.033 | [3] -0.008 | [4] -0.035 | [5] 0.005

AGO3 (UniProt Q9H9G7)
inactive: [1] 0.04 | [2] -0.086 | [3] -0.004 | [4] 0.166 | [5] 0.019

AHCTF1 isoform 2 (UniProt Q8WYP5)
inactive: [1] 0.001 | [2] -0.025 | [3] -0.213 | [4] 0.009 | [5] 0.076

AGPAT5 (UniProt Q9NUQ2)
inactive: [1] -0.015 | [2] 0.064 | [3] 0.007 | [4] -0.008 | [5] -0.025

AGRN (UniProt O00468)
inactive: [1] 0.06 | [2] 0.154 | [3] 0.043 | [4] -0.038 | [5] 0.028

ADD1 isoform 3 (UniProt P35611)
inactive: [1] 0.01 | [2] -0.003 | [3] 0 | [4] -0.014 | [5] 0.024

ALKBH3 (UniProt Q96Q83)
inactive: [1] -0.024 | [2] 0.046 | [3] 0.058 | [4] 0.02 | [5] -0.003

AGPAT3 isoform 3 (UniProt Q9NRZ7)
inactive: [1] -0.012 | [2] 0.064 | [3] 0.021 | [4] -0.048 | [5] -0.024

AHNAK (UniProt Q09666)
inactive: [1] 0.039 | [2] -0.015 | [3] 0.024 | [4] 0.017 | [5] 0.057

ADSL (UniProt P30566)
inactive: [1] 0.027 | [2] 0.013 | [3] 0.002 | [4] -0.016 | [5] 0.031

ALG13 (UniProt Q9NP73)
inactive: [1] -0.042 | [2] 0.132 | [3] 0.133 | [4] -0.092 | [5] 0.037

AK1 (UniProt P00568)
inactive: [1] -0.007 | [2] 0.099 | [3] 0.093 | [4] -0.012 | [5] -0.05

ALG8 (UniProt Q9BVK2)
inactive: [1] 0.063 | [2] 0.093 | [3] 0 | [4] -0.124 | [5] -0.053

AHSA1 (UniProt O95433)
inactive: [1] -0.035 | [2] 0.063 | [3] 0.015 | [4] -0.024 | [5] -0.003

ALKBH2 (UniProt Q6NS38)
inactive: [1] 0.02 | [2] -0.091 | [3] -0.022 | [4] 0.063 | [5] 0.082

ALG14 (UniProt Q96F25)
inactive: [1] -0.008 | [2] 0.019 | [3] 0.241 | [4] 0.051 | [5] 0.006

ADSS2 (UniProt P30520)
inactive: [1] -0.003 | [2] 0.039 | [3] 0.041 | [4] -0.016 | [5] 0.012

AMDHD2 isoform 3 (UniProt Q9Y303)
inactive: [1] -0.02 | [2] 0.019 | [3] 0.108 | [4] -0.034 | [5] -0.015

AGO4 (UniProt Q9HCK5)
inactive: [1] 0.028 | [2] -0.127 | [3] 0.041 | [4] 0.006 | [5] -0.042

AKR1D1 (UniProt P51857)
inactive: [1] 0.186 | [2] -0.049 | [3] 0.13 | [4] 0.127 | [5] -0.045

AK6 (UniProt Q9Y3D8)
inactive: [1] -0.043 | [2] 0.042 | [3] 0.2 | [4] -0.014 | [5] -0.008

3 records drawn at random from those above:
ALG14 (UniProt Q96F25)
inactive: [1] -0.008 | [2] 0.019 | [3] 0.241 | [4] 0.051 | [5] 0.006

ADSS2 (UniProt P30520)
inactive: [1] -0.003 | [2] 0.039 | [3] 0.041 | [4] -0.016 | [5] 0.012

AKR1D1 (UniProt P51857)
inactive: [1] 0.186 | [2] -0.049 | [3] 0.13 | [4] 0.127 | [5] -0.045

Next part

ADSS1 (UniProt Q8N142)
inactive: [1] -0.004 | [2] 0.076 | [3] 0.062 | [4] 0.057 | [5] -0.036

ALDH16A1 (UniProt Q8IZ83)
inactive: [1] 0 | [2] 0.029 | [3] 0.08 | [4] -0.02 | [5] 0.009

AGPAT2 (UniProt O15120)
inactive: [1] -0.07 | [2] 0.066 | [3] -0.07 | [4] -0.143 | [5] 0.044

ALDH1B1 (UniProt P30837)
inactive: [1] 0.037 | [2] 0.064 | [3] 0.013 | [4] -0.047 | [5] 0.009
